PubChem BioAssay AID1259308 – NCATS | 2017

Screen: 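Knock-downs that increase output of a recombinant reporter protein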 (primary screen)
Cell system: human HEK293 embryonic kidney cells stably expressing firefly luciferase (HEK-CMV-Luc2-Hygro)
Knock-down reagent: single siRNA against human genes, 0.8 pmol siRNA per well
Duration: 72 h
Detection: 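Reporter luminescence and viable-cell signal on separate replicate plates, given as percent of non-targeting control and median/MAD z-scores, plus per-cell luciferase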
Reading the numbers: total luciferase, z-score and total luciferase, % of control: higher = more reporter protein produced
Call rule: 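An siRNA counts as active if its total luciferase robust z-score exceeds 3; genes with two or more such siRNAs out of three were retested with fresh siRNAs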
Meaning of the calls: active = raised luciferase; inactive = no rise
Shown is an unselected part of about 59,000 reagents. About 1,510 of them (2.6%) count as active. 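Calls use total luciferase alone and ignore viability, so some active siRNAs may act by altering cell number.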 A number with no mark means an inactive call. Not all columns of the deposit are shown. No sequences are given here.

Against OR4D10 [SID160766441] the deposit lists total luciferase, z-score -0.965; total luciferase, % of control 62.7.
After knock-down of OR4D10 [SID160766442], the screen gave total luciferase, z-score -0.454; total luciferase, % of control 72.9.
Depletion of OR4D10 [SID160766443] came out at: total luciferase, z-score -0.323; total luciferase, % of control 75.5.
NAV1 [SID160753431] showed total luciferase, z-score -0.331; total luciferase, % of control 75.3.
NAV1 [SID160753433] showed total luciferase, z-score -0.267; total luciferase, % of control 76.6.
NAV1 [SID160753434] gave total luciferase, z-score -1.72; total luciferase, % of control 47.8.
TOLLIP [SID160741749] scored total luciferase, z-score 0.288; total luciferase, % of control 87.6.
TOLLIP [SID160741750] showed total luciferase, z-score 0.364; total luciferase, % of control 89.1.
After knock-down of TOLLIP [SID160741751], the screen gave total luciferase, z-score 1.4; total luciferase, % of control 110.
After knock-down of KLK12 [SID160724401], the screen gave total luciferase, z-score 5.76 (active); total luciferase, % of control 196.
For KLK12 [SID160739575], the entry reads total luciferase, z-score 0.126; total luciferase, % of control 84.4.
KLK12 [SID160739576] gave total luciferase, z-score 0.687; total luciferase, % of control 95.5.
Against CLDN1 [SID160721417] the deposit lists total luciferase, z-score 1.6; total luciferase, % of control 114.
CLDN1 [SID160721418] scored total luciferase, z-score 0.0595; total luciferase, % of control 83.1.
CLDN1 [SID160721419] scored total luciferase, z-score -0.0797; total luciferase, % of control 80.3.
Against SRP9 [SID160717337] the deposit lists total luciferase, z-score 1.36; total luciferase, % of control 109.
SRP9 [SID160717338] scored total luciferase, z-score 0.878; total luciferase, % of control 99.4.
With knock-down of SRP9 [SID160717339], the record shows total luciferase, z-score 1.05; total luciferase, % of control 103.
For TXNL4A [SID160729486], the entry reads total luciferase, z-score -0.493; total luciferase, % of control 72.1.
Silencing of TXNL4A [SID160729488] resulted in: total luciferase, z-score 0.0488; total luciferase, % of control 82.9.
With knock-down of TXNL4A [SID160730478], the record shows total luciferase, z-score -0.0179; total luciferase, % of control 81.5.

Reformatted: results already given
| gene | PubChem SID | total luciferase, z-score | total luciferase, % of control |
| --- | --- | --- | --- |
| OR4D10 | SID160766441 | -0.965 | 62.7 |
| OR4D10 | SID160766442 | -0.454 | 72.9 |
| OR4D10 | SID160766443 | -0.323 | 75.5 |
| NAV1 | SID160753431 | -0.331 | 75.3 |
| NAV1 | SID160753433 | -0.267 | 76.6 |

Continued.
Knock-down of CHPF2 [SID160741769] came out at: total luciferase, z-score -0.836; total luciferase, % of control 65.3.
For CHPF2 [SID160741770], the values are total luciferase, z-score 0.617; total luciferase, % of control 94.2.
With knock-down of CHPF2 [SID160741771], the screen gave total luciferase, z-score 2.76; total luciferase, % of control 137.
For ZC3H4 [SID160735723], the entry reads total luciferase, z-score 0.322; total luciferase, % of control 88.3.
ZC3H4 [SID160735724] scored total luciferase, z-score 0.364; total luciferase, % of control 89.1.
With knock-down of ZC3H4 [SID160735725] the results were total luciferase, z-score 0.173; total luciferase, % of control 85.3.
XG [SID160718886] showed total luciferase, z-score 1.73; total luciferase, % of control 116.
XG [SID160718888] showed total luciferase, z-score -0.711; total luciferase, % of control 67.7.
XG [SID160718889] scored total luciferase, z-score 0.123; total luciferase, % of control 84.3.
Silencing of EPB41L2 [SID160760678] came out at: total luciferase, z-score -0.19; total luciferase, % of control 78.1.
For EPB41L2 [SID160760689] the deposit lists total luciferase, z-score 0.379; total luciferase, % of control 89.4.
Depletion of EPB41L2 [SID160760700] gave: total luciferase, z-score -0.286; total luciferase, % of control 76.2.
Depletion of SKIC3 [SID160722716] gave: total luciferase, z-score -0.668; total luciferase, % of control 68.6.
SKIC3 [SID160722717] showed total luciferase, z-score -0.0322; total luciferase, % of control 81.2.
SKIC3 [SID160722718] scored total luciferase, z-score -0.788; total luciferase, % of control 66.2.
Against TMPRSS13 [SID160751613], the entry reads total luciferase, z-score 0.43; total luciferase, % of control 90.4.
For TMPRSS13 [SID160751614] the deposit lists total luciferase, z-score 0.636; total luciferase, % of control 94.5.
Against TMPRSS13 [SID160751615], the entry reads total luciferase, z-score -1.09; total luciferase, % of control 60.1.
For UBE2W [SID160743435], the values are total luciferase, z-score -0.251; total luciferase, % of control 76.9.
Knock-down of UBE2W [SID160743436] resulted in: total luciferase, z-score -0.858; total luciferase, % of control 64.8.
With knock-down of UBE2W [SID160743437], the record shows total luciferase, z-score -1.12; total luciferase, % of control 59.7.
